# This is one part of the list. Shown are side measurements of this screen, not its main read-out; they come without a call. Compounds called inactive in the main read-out are mostly missing here. The note in brackets gives the kind of curve behind each potency; many fits are weak.
# Assay: qHTS Assay to Find Inhibitors of Chronic Active B-Cell Receptor Signaling
# Conditions: ABC-DLBCL IkBa-CBG/CBR reporter, luminescence ratio (green luciferase fused to IkBa over red control in TMD8 lymphoma cells), 4 h
# Outline: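 Cell line TMD8 (human ABC DLBCL), stably expressing tet-inducible CBG68-IkBa fusion and CBR; IMDM/0.5% FBS; cpd up to 46 uM; dox induction, 4 h, 37C/5% CO2; dual luminescence; green/red ratio; MG132 control.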
# [1] = measured here: CBR red luminescence, cell number
# [2] = measured here: IkBa-CBG green luminescence
SMILES,AC50 [1],AC50 [2]
COCCn1c(SCC(=O)N2CCCc3ccccc32)nc2ccccc2c1=O,"2.24 µM [falling, full curve]",
O=C(CC1CCCCC1)NCc1ccc(Cl)cc1,"35.5 µM [rising, partial curve, poor fit]",
COc1ccc(COC(=O)C2=C(C)NC(=O)NC2c2cc(Br)c(O)c(OC)c2)cc1 (stereo unspecified),"2.82 µM [rising, full curve, poor fit]","14.1 µM [falling, partial curve, poor fit]"
COc1ccc(C(=S)N2CCN(S(=O)(=O)c3ccccc3)CC2)cc1,"20 µM [falling, single point]",
NC(=O)c1nsc(C(=O)N(c2cccc(F)c2)C(C(=O)NCC2CCCO2)c2ccc3ncccc3c2)c1N (stereo unspecified),"0.447 µM [rising, full curve, poor fit]",
CCOC(=O)Nc1nc(C)c(C(=O)c2ccc(Cl)cc2)s1,"3.26 µM [rising, full curve, poor fit]",
Cc1ccc(C(=O)Nc2sc3c(c2C(=O)O)CCCCC3)o1,"1 µM [falling, full curve, poor fit]",
COc1ccc(N2CCN(C(=O)CSc3nnc(-c4cccnc4)n3-c3ccc(F)cc3)CC2)cc1,"0.92 µM [rising, partial curve, poor fit]",
CC(=O)N1CCC2(CC1)CC(=O)c1cc(OCC(=O)N3CCOCC3)ccc1O2,"20 µM [falling, partial curve]",
COc1ccc2c(c1OC)c(=O)n1c3ccc(OC(C)C(=O)NCCCN4CCOCC4)cc3c3ccnc2c31 (stereo unspecified),"14.1 µM [falling, partial curve, poor fit]",
O=C(CCC1COc2ccccc2O1)NCc1ccco1 (stereo unspecified),,"5.8 µM [rising, full curve, poor fit]"
COc1ccccc1C(=O)Nc1nc2cc3c(cc2s1)OCO3,"0.316 µM [rising, full curve, poor fit]",
Cc1ccc(NC(CC(=O)c2ccccc2)C(=O)O)cc1Cl (stereo unspecified),"17.8 µM [falling, partial curve, poor fit]",
O=C(/C=C/c1c(Cl)cccc1Cl)NCCc1ccccc1,"2.82 µM [rising, single point]",
CC1=C(C(=O)OC(C)C)C(c2cccc(F)c2)N2C(=O)C(C)SC2=N1 (stereo unspecified),"29.1 µM [falling, single point]",
CCCCn1c(=O)c(F)cn(Cc2ccc(OC)c([N+](=O)[O-])c2)c1=O,"13 µM [rising, partial curve]","25.9 µM [falling, partial curve, poor fit]"
C=CCNS(=O)(=O)c1ccc2c(c1)n(C)c(=O)n2C,"14.1 µM [falling, partial curve, poor fit]",
COC(=O)c1ccc2nc(NC(=O)C(C)C)sc2c1,"35.5 µM [falling, single point]",
N#CC1(NC(=O)COC(=O)c2ccc(-c3ccc(O)cc3)cc2)CCCCC1,"7.31 µM [rising, partial curve, poor fit]",
CC(=O)c1ccc2c(c1)N(C)c1ccccc1S2,"20.6 µM [rising, partial curve, poor fit]",
CCSc1nc2ccccc2c(=O)n1CCc1ccc(OC)c(OC)c1,"8.91 µM [falling, partial curve]",

# In the list so far, 2 have a COOH group.
SMILES,AC50 [1],AC50 [2]
Cc1ccc(C(=O)Nc2sc3c(c2C(=O)O)CCCCC3)o1,"1 µM [falling, full curve, poor fit]",
Cc1ccc(NC(CC(=O)c2ccccc2)C(=O)O)cc1Cl (stereo unspecified),"17.8 µM [falling, partial curve, poor fit]",

# Rewritten as tab-separated lines: two of the compounds above
SMILES	AC50 [1]	AC50 [2]
COc1ccc(N2CCN(C(=O)CSc3nnc(-c4cccnc4)n3-c3ccc(F)cc3)CC2)cc1	0.92 µM [rising, partial curve, poor fit]	
CC(=O)N1CCC2(CC1)CC(=O)c1cc(OCC(=O)N3CCOCC3)ccc1O2	20 µM [falling, partial curve]	

# The listing continues:

SMILES,AC50 [1],AC50 [2]
CSCCC(NC(N)=O)C(=O)Nc1cccc(S(=O)(=O)N2CCOCC2)c1 (stereo unspecified),"12.6 µM [rising, partial curve, poor fit]",
CCOC(=O)C1CCCN(C2=NC(=O)/C(=C/c3ccc(O)c(OC)c3)S2)C1 (stereo unspecified),"25.1 µM [falling, single point]",
O=C(N/N=C/c1ccc2c(c1)OCO2)c1ccc(Cn2cc([N+](=O)[O-])cn2)o1,"9.2 µM [falling, partial curve]",
CC(Nc1n[nH]c(=O)[nH]c1=O)C(=O)N/N=C/c1ccccc1 (stereo unspecified),"0.562 µM [falling, full curve, poor fit]",
O=C(COC(=O)c1ccc(Cl)cc1[N+](=O)[O-])NC(=O)c1ccccc1,"35.5 µM [rising, single point]",
O=C(NNC1CC(=O)N(c2ccc3c(c2)OCCO3)C1=O)c1ccccc1 (stereo unspecified),"35.5 µM [falling, single point]",
N#Cc1cc2c(N)c(C(=O)Nc3ccccc3)sc2nc1N,"5.8 µM [falling, partial curve]",
CCCC(C)C(=O)Nc1ccc(Cl)cc1Cl (stereo unspecified),"29.1 µM [rising, single point]",
O=C(/C=C/c1ccccc1)Nc1ccc2c(c1)C(=O)NC2=O,"0.1 µM [falling, full curve]",
CCN1C(C(=O)Nc2cc(C)on2)=C(O)c2ccccc2S1(=O)=O,"10 µM [rising, partial curve, poor fit]",
Fc1ccc(-n2nnc(-c3cnc4ccccc4c3)n2)cc1,"3.55 µM [falling, full curve]",
Cc1ccccc1CC(=O)NC1CCN(Cc2ccccc2)CC1,"6.31 µM [rising, full curve, poor fit]",
CC(=O)c1cnc(-c2cccc(Cl)c2)s1,"11.2 µM [rising, partial curve, poor fit]",
CN(Cc1ccco1)S(=O)(=O)c1cc(F)ccc1CN1C(=O)c2cccnc2C1=O,"6.31 µM [falling, single point]",
CCCCCCN(C(=O)CCCCCN1C(=O)NC(c2ccc(-c3ccccc3)cc2)C(C(=O)OCc2ccccc2)=C1C)C(C(=O)NCCCC)c1ccc(OCC(=O)OC)c(C(=O)OC)c1 (stereo unspecified),"3.55 µM [rising, single point]",
Cc1ccc(CNC(=O)C(=O)NCC(c2ccco2)S(=O)(=O)c2ccc(C)cc2)cc1 (stereo unspecified),"1.26 µM [rising, full curve]",
COC(=O)c1ccc(C(=O)OC)c(NC(=O)CCc2ccc(C)o2)c1,"20.6 µM [falling, single point]",
Cn1ncc2c(Nc3ccc(Cl)c(Cl)c3)ncnc21,"4.47 µM [rising, single point]",
Cc1ccc(-n2nnnc2SCc2ccccn2)cc1C,"2.06 µM [rising, partial curve, poor fit]",
Cc1nc(NC2=NCN(CCc3ccccc3)CN2)nc2ccccc12,"25.9 µM [falling, partial curve, poor fit]",
Nc1nnc(SCC(=O)Nc2cc(C(F)(F)F)ccc2N2CCOCC2)s1,"29.1 µM [falling, single point]",

SMILES,AC50 [1],AC50 [2]
CCCn1c(SCC(=O)c2ccc3c(c2)OCCO3)nnc1C(C)C,"22.4 µM [falling, single point]",
O=C(/C=C/Nc1ccc([N+](=O)[O-])cc1)c1ccc(Br)cc1,"9.2 µM [rising, partial curve, poor fit]",
Clc1ccc(SCCCCN2CCNCC2)cc1,"13 µM [falling, partial curve, poor fit]",
Cc1cc(-c2ccccc2)c(C#N)c(=S)[nH]1,"0.0146 µM [rising, full curve, poor fit]",
COc1ccccc1CNC(=O)c1n[nH]c2ccccc12,"35.5 µM [falling, partial curve, poor fit]",
O=C(CN1C(=O)S/C(=C/c2cccn2-c2ccc(O)cc2)C1=O)N1CCCC1,"12.6 µM [rising, single point]",
COC(=O)C1C(c2ccccc2)C(C(=O)O)C1c1ccccc1 (stereo unspecified),"28.2 µM [rising, single point]",
CN(C)C(=O)CSc1nnc([C@H](Cc2c[nH]c3ccccc23)NC(=O)OC(C)(C)C)o1,"2.82 µM [rising, full curve, poor fit]",
Nc1ccc(C(=O)Nc2ccccc2N)cc1,,"11.2 µM [falling, partial curve]"
CCCCCC(=O)NC(=S)Nc1cccc(-c2nc3ncccc3o2)c1,"12.6 µM [rising, partial curve, poor fit]",
COc1ccc(-c2nc(-c3ccccc3)c(-c3cc([N+](=O)[O-])ccc3C)[nH]2)cc1OC,"29.1 µM [rising, single point]",
O=C(OCCOc1ccc(Br)cc1)c1cnccn1,"3.66 µM [falling, single point]",
O=C(Nc1nnc(Cc2ccccc2)s1)c1ccco1,"18.4 µM [falling, single point]","25.9 µM [rising, partial curve, poor fit]"
COc1cccc(NC(=O)CN(C)C(=O)CNC(=O)c2ccc(Oc3ccccc3)cc2)c1,"23.1 µM [falling, single point]",
CSc1nc2c(C)c(C)c(C)c(C)c2[nH]1,"35.5 µM [rising, single point]",
COc1cccc(-c2c(C(=O)N/N=C/c3cccs3)nnn2-c2nonc2N)c1,"35.5 µM [falling, single point]",
Clc1ccc(C2=NN=C3COc4ccccc4N3C2)cc1,"0.13 µM [falling, full curve, poor fit]",
Cc1cnc(=O)[nH]c1SCC(=O)Nc1cc(C(F)(F)F)ccc1Cl,"39.8 µM [rising, partial curve, poor fit]",
CN1CCN(c2nc(Nc3cccc(C(F)(F)F)c3)nc(N3CCOCC3)n2)CC1,"1.46 µM [rising, partial curve, poor fit]",
C/C(=N\NC(=S)NCc1ccccc1)c1ccc(C(C)(C)C)cc1,"20.6 µM [rising, single point]",
O=C(NC(Cc1c[nH]c2ccccc12)C(=O)Nc1ccc(F)c([N+](=O)[O-])c1)c1cccs1 (stereo unspecified),"8.2 µM [falling, partial curve]",

# Reference: PubChem BioAssay AID493014 (National Center for Advancing Translational Sciences (NCATS), 2011)
